# According to PubChem BioAssay AID504467 (National Center for Advancing Translational Sciences (NCATS), 2011):
# About 7,700 (2.3%) of roughly 330,000 compounds were called active. Inconclusive results, whose numbers are uncertain, are shown with a selection of clear calls. Calls follow the shape of the dose curve; as a rule, active = well fitted inhibition curve with a large enough effect; inconclusive = small, poorly fitted or top-dose-only effect, or effect the other way; inactive = flat fitted curve, though single readings scatter. Potencies of inconclusive entries are doubtful fits and often do not repeat.
# Test: qHTS screen for small molecules that inhibit ELG1-dependent DNA repair in human embryonic kidney (HEK293T) cells expressing luciferase-tagged ELG1; also: nearly all actives have a fitted effect of over 55% in size
# Conditions: HEK293T ELG1-luciferase reporter, luminescence, 16 h, DNA damage induced by 5-fluorouridine; activity change, negative = inhibition: at 46.1 µM (top of the series)
# How it was run: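 DMSO vehicle served as the neutral condition. Each well held 2,000 cells given 5-fluorouridine plus compound; after 16 hr at 37 °C/5% CO2, ONE-Glo was added and luciferase measured 30 min later.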
# % is scaled to controls: 0 for no effect and ±100 for the full control effect; potency is read from the fitted curve at half-maximal effect.
Structure (SMILES),Potency,"activity change, negative = inhibition"
Cc1ccc(C)c(NC(=O)CSc2nnc(CCCCCNC(=O)OC(C)(C)C)o2)c1,"inconclusive: 6.51 µM [inhibitor, partial curve, poor fit]",–
O=C(c1cc(-c2ccc(Br)cc2)on1)N1CCc2ccccc2C1,–,inactive: 17.4%
COC(=O)c1ccc(COc2ccc(C(C)(C)C)cc2)o1,"inconclusive: 3.66 µM [activator, full curve]",–
CCCCSc1nc2sc3c(c2c(=O)[nH]1)CCC3,–,inactive: 19.3%
COc1ccc(CNC(=O)CCC(=O)n2ncc3cc(C)ccc32)cc1,–,inactive: 13.9%
COc1cc(SC)ccc1C(=O)Nc1cccc(C)n1,"inconclusive: 2.59 µM [activator, partial curve]",–
CN(C)c1ccc(/C=N/NC(=O)c2ccc3c(c2)OCO3)cc1,"inconclusive: 14.6 µM [activator, partial curve]",–
CC(=O)C1=C(C)N(c2ccccc2)C(=O)C1(NS(=O)(=O)c1ccc(N)cc1)C(F)(F)F (centres undefined),–,inactive: -1.86%
CCOc1ccc(N/C(C)=C/C(=O)c2ccc(C)o2)cc1,"inconclusive: 14.6 µM [activator, partial curve]",–
COc1cc(S(=O)(=O)Nc2ccc3cn[nH]c3c2)ccc1Cl,"inconclusive: 29.1 µM [inhibitor, single point]",–
O=C(Nc1ccc(N2CCOCC2)cc1)c1ccc(Br)o1,"inconclusive: 3.66 µM [activator, full curve]",–
CCn1cc(C(=O)NCCCN2CCCC(C)C2)c(=O)c2cc(S(=O)(=O)N3CCOCC3)ccc21 (centres undefined),–,inactive: 11.9%
COc1ccccc1C(=O)NNC(=O)C(=O)NC1CCCCC1,"inconclusive: 29.1 µM [inhibitor, partial curve, poor fit]",–
Cc1cccc(C)c1OCC(=O)Nn1c(C)nc2ccccc2c1=O,"inconclusive: 32.6 µM [inhibitor, partial curve, poor fit]",–
CSc1nsc2nc(=O)c(/C=C3\C=Nc4ccccc43)c(N)n12,"inconclusive: 14.6 µM [activator, partial curve]",–
O=C1CC(c2ccc(O)cc2)Oc2ccccc21 (centres undefined),"inconclusive: 20.6 µM [activator, partial curve]",–
O=S1(=O)CCOCCCN1Cc1ccccc1F,–,inactive: 15.6%
CCC1=C(OC(=O)N(CC)CC)N2C(=O)OC(=NCC(=O)OC)[C@]2(Cc2ccccc2)[C@H]2C1=CC[C@H]1C(=O)N(C)C(=O)[C@H]12,–,inactive: 6.56%
O=C(Oc1ccc(C(=S)N2CCOCC2)cc1)c1ccccc1[N+](=O)[O-],–,inactive: -3.11%
O=C(NCCCCc1ccccc1)c1cc([N+](=O)[O-])cc([N+](=O)[O-])c1,"inconclusive: 16.4 µM [inhibitor, single point]",–
O=C(c1cccc(Cl)c1)N1CCC(c2nc3ccccc3[nH]2)CC1,"inconclusive: 1.03 µM [activator, single point]",–
Clc1ccc(-c2cc(C3CCNCC3)[nH]n2)cc1,–,inactive: 10.5%

Structure (SMILES),Potency,"activity change, negative = inhibition"
Cc1ccc2c(c1C)NC(=O)C21N2CCCC2C(C(=O)c2ccc3ccccc3c2)C12C(=O)Nc1ccccc12 (centres undefined),–,inactive: -6.52%
COc1ccc(OC)c(NC(=O)c2ccccc2N(Cc2ccccc2)S(C)(=O)=O)c1,"inconclusive: 20.6 µM [inhibitor, partial curve, poor fit]",–
Cc1ccc(O)c(NC(=O)c2cc3nc4c(c(C(F)(F)F)n3n2)CCc2ccccc2-4)c1,"inconclusive: 2.06 µM [inhibitor, partial curve, poor fit]",–
Cc1ccc(C(=O)NCCCn2ccnc2)cc1[N+](=O)[O-],"inconclusive: 29.1 µM [activator, single point]",–
O=C(Nc1ccc(N2CCOCC2)cc1)c1cccnc1,"inconclusive: 20.6 µM [activator, partial curve]",–
CC(C)(C)CC(=O)O/N=C(\N)c1ccccn1,"inconclusive: 2.06 µM [activator, partial curve]",–
Cc1ccc(C2=NN(S(C)(=O)=O)C(c3ccc4c(c3)OCO4)C2)cc1 (centres undefined),"inconclusive: 2.31 µM [activator, full curve]",–
Cc1cccc(-n2ncc3c(NC4CCCCC4)ncnc32)c1,"inconclusive: 2.59 µM [activator, partial curve]",–
O=C(N/N=C/c1cc(Br)cs1)c1ccc2c(c1)OCCO2,"inconclusive: 6.51 µM [activator, single point]",–
O=C(/C=C/c1ccccc1)Nc1sc2c(c1C(=O)O)CCC2,"inconclusive: 18.3 µM [activator, single point]",–
COc1ccccc1N1CCN(CC(=O)Nc2ccccc2C(=O)NCCc2ccccc2)CC1,"inconclusive: 3.16 µM [inhibitor, full curve]",–
Cc1ccc2nc(CSc3nc(C)nc4c3oc3ccccc34)[nH]c2c1,"inconclusive: 20.6 µM [inhibitor, partial curve]",–
O=C(c1ccc(S(=O)(=O)N2CCCCCC2)cc1)N1CCN(c2ccccn2)CC1,"inconclusive: 14.6 µM [inhibitor, single point]",–
O=C(O)c1ccccc1S(=O)(=O)CC(=O)N1CCCCC1,–,inactive: 0%
CCOC(=O)Nc1nnc(/C=C/c2ccc(OC)cc2)s1,"inconclusive: 14.6 µM [activator, single point]",–
O=C(/C=C/c1ccccc1)N1CCN(C(=O)c2ccco2)CC1,–,inactive: 17.6%
CCOC(=O)c1sc2ncnc(OC)c2c1C,–,inactive: 22.6%
CN1CCc2c(sc3nc(SCC(N)=O)n(-c4ccc(Cl)cc4)c(=O)c23)C1,"inconclusive: 1.46 µM [inhibitor, full curve, poor fit]",–
O=C(COC(=O)CCNS(=O)(=O)c1ccccc1)NC(=O)Cc1ccccc1,"inconclusive: 22.4 µM [activator, single point]",–
COc1ccccc1N(C)S(=O)(=O)c1ccc(C(=O)OCC(N)=O)cc1,–,inactive: 1.25%
C/C(=N\Nc1ccc(Cl)c(C(=O)O)c1)c1cccc([N+](=O)[O-])c1,"inconclusive: 16.4 µM [activator, single point]",–
CCn1c(SCC(=O)Nc2cccc(NC(=O)c3ccco3)c2)nnc1-c1cccs1,"inconclusive: 16.4 µM [inhibitor, single point]",–

# Record cards, as listed above. Values in the order: Potency | activity change, negative = inhibition
# CCOC(=O)c1sc2ncnc(OC)c2c1C reads – | inactive: 22.6%
# CCn1c(SCC(=O)Nc2cccc(NC(=O)c3ccco3)c2)nnc1-c1cccs1 reads inconclusive: 16.4 µM [inhibitor, single point] | –
